Data: patent publication US20090220534A1, “METHODS FOR IDENTIFYING T-CELL EPITOPES ASSOCIATED WITH IMPAIRED PEPTIDE PROCESSING AND APPLICATIONS OF THE IDENTIFIED EPITOPES” (Leiden University Medical Center, priority 2006, published 2009)
These are yes or no findings as the source states them, for the method shown. Some entries that bind do so weakly or less than the wild type.

By UniProt entry, the sequences of proteins in these tests, tags left out. Residues count along the entry.
UniProt P01899, residues 25-309: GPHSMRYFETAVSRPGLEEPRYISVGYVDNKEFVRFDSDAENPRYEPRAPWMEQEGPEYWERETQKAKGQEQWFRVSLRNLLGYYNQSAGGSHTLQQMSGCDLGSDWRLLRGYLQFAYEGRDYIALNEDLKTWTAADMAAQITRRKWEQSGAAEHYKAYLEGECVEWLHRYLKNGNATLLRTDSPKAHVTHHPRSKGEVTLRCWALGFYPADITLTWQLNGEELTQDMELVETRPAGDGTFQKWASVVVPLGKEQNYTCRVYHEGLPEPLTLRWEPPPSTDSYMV

Columns and labels:
[1] = biological target: H-2D^b MHC class I molecule (mouse) (UniProt P01899); experiment: peptides eluted from immunoaffinity purified Db of RMA-S cells, HPLC, tandem MS
[2] = biological target: H-2D^b MHC class I molecule (mouse) (UniProt P01899); experiment: peptides eluted from purified Db of RMA-S cells, HPLC, tandem MS

In the case of MCLRMTAVM [… (Trh4 derived TEIPP D^b peptide, C-terminus of the protein of the long Trh4 transcript)], the binding [1] is reported as “binds” and the binding [2] is reported as “binds”.
